Test results published in PMC7725820, “Heme biosynthesis depends on previously unrecognized acquisition of iron-sulfur cofactors in human amino-levulinic acid dehydratase” (Nature Communications, 2020).
No constants are given. Whether binding was seen depends on the method and setting. In cells and extracts the contact can be indirect. Some entries that bind do so weakly or less than the wild type. For some assays here: Sequences can lack the tags named with a protein.

T1: endogenous cytosolic HSC20 (C-HSC20) (human (endogenous in HeLa)) (UniProt Q8IWL3)
T1 sequence: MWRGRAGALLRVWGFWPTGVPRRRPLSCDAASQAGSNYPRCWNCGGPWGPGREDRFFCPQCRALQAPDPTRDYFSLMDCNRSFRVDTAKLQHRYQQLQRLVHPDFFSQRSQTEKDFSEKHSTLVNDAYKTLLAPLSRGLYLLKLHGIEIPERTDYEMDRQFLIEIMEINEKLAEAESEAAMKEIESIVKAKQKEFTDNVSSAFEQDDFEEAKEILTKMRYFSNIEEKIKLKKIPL

T2: C-terminally FLAG/MYC-tagged AFR-AAA ALAD mutant (human) (UniProt P13716)
T2 sequence: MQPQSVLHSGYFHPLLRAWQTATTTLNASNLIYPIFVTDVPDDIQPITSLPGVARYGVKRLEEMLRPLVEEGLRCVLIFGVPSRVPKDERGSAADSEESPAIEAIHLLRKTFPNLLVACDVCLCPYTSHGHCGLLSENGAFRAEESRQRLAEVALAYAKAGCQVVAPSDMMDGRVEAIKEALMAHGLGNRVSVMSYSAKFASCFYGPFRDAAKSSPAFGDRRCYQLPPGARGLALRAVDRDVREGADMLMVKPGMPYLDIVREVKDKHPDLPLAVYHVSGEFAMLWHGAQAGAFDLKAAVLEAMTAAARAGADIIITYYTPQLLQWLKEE


Experiments:
[1] = biological target: T1, endogenous cytosolic HSC20 (C-HSC20) (human (endogenous in HeLa)); test: co-IP; endogenous proteins; cytosolic fraction of HeLa cells incubated with rabbit anti-HSC20 antibody coupled to amine-reactive resin, 4 °C overnight, acidic elution (Tris-glycine, pH 2.8), Western blot with anti-HSC20 and anti-ALAD
[2] = biological target: T2, C-terminally FLAG/MYC-tagged AFR-AAA ALAD mutant (human); test: co-IP; whole-cell lysates of HeLa cells transfected with FLAG/MYC-tagged ALAD, anti-FLAG M2 affinity gel, 4 °C overnight, acidic elution (Tris-glycine, pH 2.8), Western blot

Molecule	binding [1]	binding [2]
human aminolevulinic acid dehydratase (ALAD), endogenous (from UniProt P13716 1-330) (enzyme)	binds	–
endogenous cytosolic HSC20 (C-HSC20) (protein, UniProt Q8IWL3 1-235) MWRGRAGALLRVWGFWPTGVPRRRPLSCDAASQAGSNYPRCWNCGGPWGPGREDRFFCPQCRALQAPDPTRDYFSLMDCNRSFRVDTAKLQHRYQQLQRLVHPDFFSQRSQTEKDFSEKHSTLVNDAYKTLLAPLSRGLYLLKLHGIEIPERTDYEMDRQFLIEIMEINEKLAEAESEAAMKEIESIVKAKQKEFTDNVSSAFEQDDFEEAKEILTKMRYFSNIEEKIKLKKIPL	–	no binding
